Measurements published in patent US9486427B2, “Administration of aerosolised iloprost” (VECTURA GMBH, priority 2012, dated 2016).

Assay: In vitro nebulisation study, AKITA2 APIXNEB, radiolabelled 50 μg/mL iloprost solution, aerosol captured on inhalation filters (Example 1)
Experimental: In an in vitro nebulisation study, the feasibility of delivering aerosolised single doses of 2.5 μg and of 5 μg of iloprost to the mouthpiece of a nebuliser was evaluated. A nebuliser system comprising an electronic vibrating mesh nebuliser (by PARI GmbH, incorporating the Touchspray Technology®; having some similarity to PARI's eFlow® nebuliser) and a device for controlling the breathing pattern (AKITA®) was configured by means of an electronic chip card to deliver an aerosol from an aqueous solution at a flow rate of 15 L/min. The inhalation system is also known as AKITA^2 APIXNEB™ (by Activaero GmbH). For the purpose of enabling the control of the breathing pattern of a patient using the AKITA^2 unit, the nebuliser handset device in the APIXNEB™ system differs from the eFlow® system by modifications allowing it be connected to the AKITA^2 unit through an electric cord and an additional tube for providing e.g. a predetermined inspiratory air flow. Further details on the device may be taken e.g. from the Fact Sheet AKITA^2 APIXNEB™ (Art.-Nr. 05DK0105| V 1.0/Aufl.1). The inspiration time per breath was set at 4.1 seconds, corresponding to an inhalation volume of 1.025 mL. The nebulisation time was adjusted to 3.1 seconds, which corresponds to an aerosol volume of 775 mL. The device was also programmed to deliver 250 mL of aerosol-free air after emitting the aerosol during every inspiration cycle.
Two different meshes were used in the nebuliser. Both had around 3,000 openings of approx. 2 μm in diameter.
Per test run an aliquot of 0.5 mL of an aqueous composition comprising 50 μg/mL of iloprost and the radiolabel ^99mTc in 0.9 wt.-% saline solution was filled into the fluid reservoir of the nebuliser. The inhaler system was activated to aerosolise the solution during series of four simulated breaths. The emitted aerosol was captured by inhalation filters, and the amount of aerosol was determined with a scintillation counter.

## CC#CCC(C)[C@H](O)/C=C/[C@@H]1[C@H]2C/C(=C/CCCC(=O)O)C[C@H]2C[C@H]1O (stereo partly drawn) [Iloprost, 5-{(E)-(1S,5S,6R,7R)-7-hydroxy-6[(E)-(3S,4RS)-3-hydroxy-4-methyl-1-octen-6-inyl]-bi-cyclo[3.3.0]octan-3-ylidene}pentanoic acid]
All four breaths, first series of experiments
  mean amount of delivered aerosol, as iloprost: 5.25 µg
All four breaths, second series of experiments
  mean amount of delivered aerosol, as iloprost: 5.19 µg
First two breaths, first series of experiments
  mean amount of delivered aerosol, as iloprost: 2.50 µg
First two breaths, second series of experiments
  mean amount of delivered aerosol, as iloprost: 2.53 µg
